The values below come from paper PMC10328928.

By UniProt entry, the sequences of proteins in these tests, tags left out. Residues count along the entry.
UniProt Q93034, residues 12-780: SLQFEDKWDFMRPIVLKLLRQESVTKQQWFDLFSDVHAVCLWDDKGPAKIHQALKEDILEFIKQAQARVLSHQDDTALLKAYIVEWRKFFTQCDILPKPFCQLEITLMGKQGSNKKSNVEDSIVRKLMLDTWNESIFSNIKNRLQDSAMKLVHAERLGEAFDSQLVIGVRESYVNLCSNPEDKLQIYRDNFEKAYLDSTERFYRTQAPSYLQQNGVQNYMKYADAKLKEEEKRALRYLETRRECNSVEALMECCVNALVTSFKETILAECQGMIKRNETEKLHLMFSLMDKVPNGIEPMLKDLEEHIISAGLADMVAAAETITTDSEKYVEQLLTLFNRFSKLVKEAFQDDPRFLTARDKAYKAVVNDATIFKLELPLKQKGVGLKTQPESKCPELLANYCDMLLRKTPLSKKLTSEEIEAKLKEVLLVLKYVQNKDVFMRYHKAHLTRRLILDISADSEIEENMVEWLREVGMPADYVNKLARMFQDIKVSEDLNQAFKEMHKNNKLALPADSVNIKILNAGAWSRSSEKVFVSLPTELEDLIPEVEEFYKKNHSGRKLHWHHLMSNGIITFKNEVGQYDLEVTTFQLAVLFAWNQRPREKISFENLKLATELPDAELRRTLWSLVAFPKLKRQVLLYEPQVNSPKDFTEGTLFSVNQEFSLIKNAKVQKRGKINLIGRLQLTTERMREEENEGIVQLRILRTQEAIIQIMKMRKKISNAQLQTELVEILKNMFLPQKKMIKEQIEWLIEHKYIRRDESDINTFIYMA
UniProt Q9UBF6: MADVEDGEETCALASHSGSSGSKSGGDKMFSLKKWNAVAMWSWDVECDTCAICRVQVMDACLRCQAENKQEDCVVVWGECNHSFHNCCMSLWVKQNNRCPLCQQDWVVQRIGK

No constants are given. Whether binding was seen depends on the method and setting. Some entries that bind do so weakly or less than the wild type.

The experiment concerns the target human cullin-5, CUL5 (amino acid residues S12 to A780) (human) (UniProt Q93034). Description: co-expression and co-purification.

Take “human RING-box protein 2, Rbx2 (M1 to K113) (from UniProt Q9UBF6 1-113)”: the binding result is listed as “binds”.
